The source of these data is the supplement of paper PMC11237882.

Some of the results follow. Values are worked out from sequencing counts and are noisy.

The target in the assay is T1, Homer1 EVH1 domain.
T1 chain: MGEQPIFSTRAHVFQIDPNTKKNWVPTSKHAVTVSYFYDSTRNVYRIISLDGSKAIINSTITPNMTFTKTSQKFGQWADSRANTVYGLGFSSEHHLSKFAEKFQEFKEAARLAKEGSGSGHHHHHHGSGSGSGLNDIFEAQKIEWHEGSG
The experiment in a line: enrichment score (AUC of log2 frequency ratio across FACS sorting rounds) (log2 AUC); higher = stronger enrichment for Homer1 EVH1 binding.
Consider PEPTVSPVNASDIHWSSSSLPDRWIILGAFILLVLM, for which the enrichment score was 3.36.

With TNVLIFFWCLAFLWGLLILLKYRWRKLEEEEQAMYE, the enrichment score came out at 3.1.

Regarding LPLKEARLKVFNTCIPHIYVFFQFYLLAFFFIFYSQ, the enrichment score turned out to be 3.19.

As for LPPEHSDVVIVGGGVLGLSVAYWLKKLESRRGAIRV, the enrichment score is 0.378.

In the case of IWEYSVLIIVMACMEYEMGKKKCERYWAEPGEMQLE, the enrichment score was determined as 1.65.

Turning to DGETIFMYMFLAGLGPLVIVGLHQLLESRKRKRPIQ, the enrichment score came out at 4.27.

Turning to MGTRGAVMPPPMWGLLGCCFVCAWALGGPRPIRSLP, the enrichment score turned out to be 3.34.

Turning to GINMKIPPFISKGEIMNVWFHFTCLVSFSSFIYFAS, the enrichment score is 1.59.

Turning to VAAIVAAVVALIYCRKKRISALPGYPECREMGETLP, the enrichment score came to 0.517.

On to TEVKASDPHSMPELPRTAKQPPVPPPRKKRISRQLA, for which the enrichment score is -1.36.

As to EAASLSLSNLWFGFLLGLLCFLDNSSFKNDVKEEST, the enrichment score worked out at 3.97.

Regarding SLDNRINEVNKTILLTTLIPYLQSVIFLFVIRCLEK, the enrichment score amounted to 2.41.

Regarding QMFAKGYGKNNEPLRGYILTFLIALGFILIAELNVI, the enrichment score was 0.965.

Take LITEIIPSTSLVIPLIGEYLLFTMIFVTLSIVITVF: the enrichment score amounted to 4.01.

VGNALGAGDMEQARKSSTVSLLITVLFAVAFSVLLL: the enrichment score amounted to 3.18.

Regarding RTGREKIFSKHVAHVLNDETQRKYIQGLKRLMTICQ, the enrichment score was -0.0114.

Take VESTKKFLKFGFLDPLFLSIILFPFLTPVFEALNVS: the enrichment score is -0.693.

Take EHLRVIGAVGIGLACVQVFGMIFTCCLYRSLKLEHY: the enrichment score came to 0.455.

For the molecule LVGQTQTHNKSICTTTTAFLHFFFLASFCWVLTEAW, the enrichment score stood at 2.54.

For the molecule YVGNQNLDALTGFVVAPLFTYLVIGTLFIAAGLVAL, the enrichment score is 3.9.

As to TSGPPGEGCSGLCSWRSAPLHSGSLLYLLLSHLLPP, the enrichment score is -3.

LKGADAGNGIRVFVPDIGMFIASLTIWLLCRNIVQK: the enrichment score turned out to be 3.88.

Regarding KNSNNLIIKYISCRLLTLIIILLACIYLGYYFSLSS, the enrichment score stood at 1.63.

On to MGGLRPWSRYGLLVVAHLLALGLGAVVFQALEGPPA, for which the enrichment score came out at 2.53.

PPSPALPVPSGMQVPPAFLRPPSLFLRAAAAAAAAA: the enrichment score was determined as 3.72.

For IYCLVLLAFATGLNQLYFYYETRAIDEPNNCKGIRC, the enrichment score amounted to 1.31.

In the case of FAQLFQYKAVFILEELLSPIVTPLILIFCLRPRALE, the enrichment score stood at 0.412.

As for MRDYLATHVHSRPLLLALHGPSGVGKSHVGRLLARH, the enrichment score is -2.33.

With MGALGLEGRGGRLQGRGSLLLAVAGAASLVTLLLAV, the enrichment score stood at 0.00102.

For the molecule EPNGSALPPTEGPPSPRNQPTTALLSLILMLGTFFI, the enrichment score turned out to be 0.414.

In the case of CPLQCGIMWQLLLPTALLLLVSAGMRTEDLPKAMVV, the enrichment score amounted to 1.41.

Regarding TPTPDKSHNSGVNISTLVLSVIGSVVIVNFILSTTI, the enrichment score was -0.268.

For EWTSSVHQKIYTTFILVILFLLPLMVMLILYSKIGY, the enrichment score came to 5.21.

In the case of SVQTDDEDSAEWEQPVRRRRSRLPRHSDSGSDSKHD, the enrichment score stood at 1.16.

On to QPIRIYSRASLYGPNIGRPRKNVIALLDGFMKVAGS, for which the enrichment score came to 0.398.

Take MVWCLGLAVLSLVISQGADGRGKPEVISVVGRAEES: the enrichment score was -0.355.

MKKSGVLFLLGIILLVLIGVQGTPVVRKGRCSCIST: the enrichment score turned out to be 1.95.

Consider RFGAYLVAHKLMSFEDVLLVFSAVVFGAMAVGQVSS, for which the enrichment score stood at 3.11.

Turning to SPLHSPSALPTQHASWGMLLPSRRLFRKLFWKLSSS, the enrichment score worked out at 3.16.

Consider ILAQEEEQYLQSGDQQLTRHVLLCLLLIIGLFANLS, for which the enrichment score came to 2.85.

Turning to MAILPLLLCLLPLAPASSPPQSATPSPCPRRCRCQT, the enrichment score is 3.1.

Take MAAKVFESIGKFGLALAVAGGVVNSALYNVDAGHRA: the enrichment score is -0.66.

As for MRGHELPLVLLALVLCLTPRGRAVPLPAGGGTVLTK, the enrichment score turned out to be 1.85.

Turning to WVSVLSDAWNSSPHPETRSMIVCLLFMMILLAKEVQ, the enrichment score was found to be 1.32.
